Data reported in PubChem BioAssay AID493014 (National Center for Advancing Translational Sciences (NCATS), 2011).
This is one part of the list. Shown are side measurements of this screen, not its main read-out; they come without a call. The list favours compounds with an active or inconclusive main result. Potencies come from curve fits of mixed quality, noted in brackets.

Test: qHTS Assay to Find Inhibitors of Chronic Active B-Cell Receptor Signaling
Conditions: ABC-DLBCL IkBa-CBG/CBR reporter, luminescence ratio (green luciferase fused to IkBa over red control in TMD8 lymphoma cells), 4 h
Summary of the method: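 TMD8 human ABC-DLBCL cells with doxycycline-inducible IκBα–green luciferase fusion and unfused red luciferase, in 0.5% FBS medium; compounds up to 46 uM, 4 h at 37C. Green/red luminescence ratio, filter-overlap corrected, fitted to concentration-response curves.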

[1] = measured here: CBR red luminescence, cell number
[2] = measured here: IkBa-CBG green luminescence

| Compound | AC50 [1] | AC50 [2] |
| --- | --- | --- |
| COc1ccc(N=c2oc3c(OC)cccc3cc2C(=O)NCc2ccco2)c(OC)c1 | 7.08 µM [falling, full curve] |  |
| Cc1ccc(C(=O)N[C@H](C(=O)Nc2ccc(F)cc2)C(C)C)cc1 | 10 µM [falling, partial curve] |  |
| CC(C)CCNC(=O)NC(=O)COc1ccccc1C#N | 29.1 µM [falling, single point] |  |
| CCn1cnc2c(Nc3cc(F)cc(F)c3)nc(C#N)nc21 | 4.11 µM [rising, full curve, poor fit] |  |
| CSc1nc2ccccc2s1 | 6.51 µM [rising, single point] |  |
| Cc1ccc(NC(C#N)c2ccccc2OCc2ccccc2)cc1 (stereo not given) |  | 25.1 µM [falling, single point] |
| CCOC(=O)N1CCN(C(=O)c2c(O)c3cccc4c3n(c2=O)CC4)CC1 | 1.84 µM [falling, partial curve, poor fit] |  |
| Cc1ccc(NC(=O)Cc2ccccc2)c(C)c1 | 11.2 µM [rising, partial curve, poor fit] |  |
| CS(=O)(=O)NCCCNc1ccc(Cl)cc1[N+](=O)[O-] | 3.26 µM [rising, full curve, poor fit] |  |
| O=C(O)c1ccc(-c2ccccn2)s1 | 11.2 µM [falling, partial curve] |  |
| N/C(=N\OC(=O)c1ccccc1Cl)c1cccnc1 | 1.46 µM [rising, partial curve, poor fit] |  |
| O=C(O)c1cccc2c(/C=N/Nc3ccccn3)c[nH]c12 | 1 µM [falling, full curve] |  |
| Cc1noc(C)c1COc1cccc(C(=O)OCC(=O)N2CC(=O)Nc3ccccc32)c1 | 31.6 µM [rising, single point] | 12.6 µM [falling, partial curve] |
| COC(=O)C1OC(OC2CC[C@]3(C)C(CC[C@@]4(C)[C@@H]3CC=C3[C@@H]5CC(C)(C)CC[C@]5(C(=O)OC5OC(CO)C(O)C(O)C5O)CC[C@]34C)C2(C)C)C(O)C(O)C1O[C@H]1OCC(O)C(O)C1O (stereo not given in full) | 29.1 µM [falling, single point] |  |
| CCCCCn1c(=O)[nH]c2cc(C(=O)N3CCN(CC)CC3)ccc2c1=O | 20.6 µM [rising, partial curve, poor fit] |  |
| Oc1ccc(N=Nc2ccc(Br)cc2)c(O)c1 | 0.562 µM [rising, partial curve, poor fit] | 35.5 µM [falling, single point] |
| Cc1[nH]c2ccccc2c1N=Nc1ccccc1F | 0.158 µM [rising, full curve, poor fit] |  |
| CC(=O)Nc1ccc(NC(=O)C(C)OC(=O)c2c(C)nn(-c3ccccc3)c2Cl)cc1 (stereo not given) | 0.116 µM [rising, full curve, poor fit] |  |
| CCC/C(=N\NC(=O)Cc1csc(N2CCOCC2)n1)c1ccccc1 | 5.62 µM [falling, partial curve, poor fit] |  |
| CSc1ccc2c(c1)N(CCC1CCCCN1C)c1ccccc1S2 (stereo not given) | 2.06 µM [falling, partial curve] |  |
| COc1ccc(-n2nc(C#N)c(Cl)cc2=O)cc1 | 7.08 µM [falling, partial curve] | 7.08 µM [rising, partial curve, poor fit] |

| Compound | AC50 [1] | AC50 [2] |
| --- | --- | --- |
| O=C(CCCN1C(=O)/C(=C/c2ccccc2Cl)SC1=S)NNC(=O)c1ccc(Cl)cc1 | 0.891 µM [falling, full curve, poor fit] |  |
| Cc1ccc(/C=C/C(=O)NCc2cccs2)cc1 | 18.4 µM [falling, partial curve] |  |
| Nc1nc(SCc2nc(-c3ccccc3)no2)[nH]c(=O)c1-c1ccccc1 | 0.206 µM [rising, full curve] | 16.4 µM [falling, partial curve] |
| COCC(C)n1c(C)cc(C(=O)CSc2ncccn2)c1C (stereo not given) | 35.5 µM [rising, partial curve, poor fit] |  |
| COc1cc(/C=N/n2nnnc2N)cc(OC)c1OC | 35.5 µM [falling, single point] |  |
| O=C1C(=O)N(C/C=C/c2ccccc2)c2ccccc21 | 15.8 µM [rising, partial curve] | 22.4 µM [falling, single point] |
| Oc1ccccc1CN1CCN(C(O)(c2ccccc2)c2ccccc2)CC1 | 22.4 µM [falling, single point] |  |
| CCOC(=O)c1cccc(NC(=O)CSc2nnc(C3CCCCC3)n2CC)c1 | 28.2 µM [falling, single point] |  |
| COc1ccc(C)c(Cn2c(-c3nonc3N)nc3ccccc32)c1 | 7.08 µM [rising, partial curve] | 10 µM [falling, partial curve, poor fit] |
| Cc1cc(C)nc(NC(=O)c2ccc3c(c2)OCO3)c1 | 11.2 µM [falling, partial curve] |  |
| Cc1ccc(N(C)S(=O)(=O)c2c[nH]c3ccc([N+](=O)[O-])cc23)cc1 | 11.2 µM [falling, single point] |  |
| COc1ccccc1NC(=O)Nc1ccc(Cl)c(S(=O)(=O)Nc2ccccc2OC)c1 | 23.1 µM [falling, partial curve, poor fit] |  |
| CC(=O)c1c(C)[nH]c(C(=O)COC(=O)c2ccc(Cl)nc2)c1C | 0.651 µM [rising, full curve, poor fit] |  |
| C/C(=N/N=C(/C)c1cccs1)c1cccs1 | 35.5 µM [rising, single point] |  |
| COc1ccc(C(=O)NCCn2ccc3ccccc32)c(OC)c1 |  | 15.8 µM [rising, partial curve, poor fit] |
| CCOC(=O)C1CCN(C2CC(=O)N(c3cccc(Cl)c3)C2=O)CC1 (stereo not given) | 13 µM [falling, partial curve, poor fit] |  |
| CCOc1ccccc1N1CCN(Cc2ccco2)CC1 | 0.58 µM [falling, full curve] |  |
| O=C(CCNc1n[nH]c(=O)[nH]c1=O)N/N=C/c1ccccc1Br | 0.447 µM [rising, full curve, poor fit] |  |
| CCOC(=O)C1CCCN(C(=O)C(C)Oc2ccc(Cl)cc2Cl)C1 (stereo not given) | 0.164 µM [falling, full curve, poor fit] |  |
| c1ccc(NCc2nc3ccccc3n2CCOc2ccccc2)cc1 | 4.11 µM [falling, partial curve] |  |
| Cn1c(SCc2nnc3n2CCCCC3)nc2ccccc21 | 1.3 µM [falling, partial curve, poor fit] |  |

| Compound | AC50 [1] | AC50 [2] |
| --- | --- | --- |
| c1ccc2c(c1)Nc1nccnc1S2 | 10.3 µM [falling, partial curve] |  |
| Oc1ccc(-c2[nH]ncc2-c2ccc(Br)cc2)c(O)c1 | 35.5 µM [rising, single point] |  |
| Cc1c(/C=C/C(=O)c2ccc(Cl)s2)cnn1C | 29.1 µM [falling, single point] |  |
| Cc1nn(-c2ccccc2)c(Cl)c1C(=O)NC1CCCCC1 | 5.01 µM [rising, single point] |  |
| C[C@H]1CN([C@@H](C)CO)C(=O)Cc2cc(NC(=O)CCC(F)(F)F)ccc2O[C@H]1CN(C)S(=O)(=O)c1ccc(F)cc1 | 18.4 µM [rising, single point] | 16.4 µM [falling, partial curve, poor fit] |
| Cc1nc2ccccc2c2oc(C(=O)NCC3CCCO3)cc12 (stereo not given) | 10 µM [falling, partial curve, poor fit] |  |
| CCOC(=O)C1=CN(Cc2cccc(F)c2)S(=O)(=O)NC1c1cccc(OC)c1 (stereo not given) | 32.6 µM [falling, single point] |  |
| COc1ccc(NC(=O)CN(C)C(=O)/C=C/c2cn(-c3ccccc3)nc2-c2ccc(F)cc2)cc1 | 8.2 µM [rising, partial curve, poor fit] |  |
| O=C(Cn1ncc(Cl)c(Cl)c1=O)c1ccc2c(c1)OCCO2 | 10.3 µM [falling, partial curve, poor fit] | 18.4 µM [rising, partial curve, poor fit] |
| CCCc1cc(=O)oc2c(C)c(OCC(=O)NCCCN3CCOCC3)ccc12 | 35.5 µM [rising, single point] |  |
| CCN(CC)c1ccc(/C=N/Nc2nc3ccccc3[nH]2)cc1 | 20.6 µM [falling, single point] | 6.51 µM [falling, single point] |
| CCC1CCc2c(sc(NC(=O)c3ccoc3C)c2C(N)=O)C1 (stereo not given) | 2.91 µM [rising, single point] |  |
| CCOC(=O)c1sc(NC(=O)/C=C/c2ccccc2)nc1C | 0.082 µM [falling, full curve, poor fit] |  |
| COc1ccc2nc3sc(C(=O)NCc4cccs4)c(N)c3cc2c1 | 0.282 µM [falling, full curve, poor fit] |  |
| COC(=O)C(NC(=O)C(CC(C)C)NC(=O)C1CCC(C)CC1)C(C)C (stereo not given) | 29.1 µM [falling, single point] |  |
| Cc1ccc(NS(=O)(=O)c2cc(NC(=O)c3ccc4c(c3)NC(=O)CS4)ccc2C)c(C)c1 | 14.1 µM [falling, single point] |  |
| CC/C(=C(/CC)c1ccc(O)cc1)c1ccc(O)cc1 | 35.5 µM [falling, single point] |  |
| Cc1nn2c(N)c(C#N)cnc2c1-c1ccc(Cl)cc1 | 3.66 µM [rising, partial curve, poor fit] |  |
| COc1ccc(OC)c(-c2cc(C(=O)NCc3ccco3)no2)c1 |  | 15.8 µM [falling, partial curve, poor fit] |
